Measurements reported in PubChem BioAssay AID1224830 (NIAID, 2016)
This is an unselected part of about 18,000 reagents. In the full data, about 2,900 (16%) are marked active. 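Calls are made per well; low scores hint the gene aids the LPS response, high scores that it dampens it.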 Repeated entries: four replicate wells of each siRNA pool. Reagent sequences are not shown.

Screen: 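Regulators of TLR4 signalling towards TNF-alpha in macrophage-like cells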 (primary screen)
System: human THP-1 monocytic leukaemia cells, TNF dual-luciferase reporter clone, PMA-differentiated to macrophage-like cells
Reagents: siRNA pool against human genes, 50 nM
Duration: LPS for 4 h, given about 3 days after siRNA transfection
Conditions: bacterial LPS (TLR4 ligand), 10 ng/ml
Measurement: 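Ratio of firefly to renilla light, scaled to the plate median and expressed as a robust z-score per replicate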
Reading the numbers: TNF reporter robust z-score: higher = stronger TNF reporter response to LPS
Active means: 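Each well counts as active if its z-score is over 2.8 or under -1.5; controls are left without a call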

ECI2 | TNF reporter robust z-score: -1.23; call: inactive
ECI2 | TNF reporter robust z-score: -0.52; call: inactive
ECI2 | TNF reporter robust z-score: -0.21; call: inactive
ECI2 | TNF reporter robust z-score: -0.16; call: inactive
CCDC34 | TNF reporter robust z-score: 2.15; call: inactive
CCDC34 | TNF reporter robust z-score: 0.11; call: inactive
CCDC34 | TNF reporter robust z-score: 0.05; call: inactive
CCDC34 | TNF reporter robust z-score: 2.72; call: inactive
CNTNAP3 | TNF reporter robust z-score: -1.74; call: active
CNTNAP3 | TNF reporter robust z-score: -1.8; call: active
CNTNAP3 | TNF reporter robust z-score: -2.09; call: active
CNTNAP3 | TNF reporter robust z-score: -1.29; call: inactive
SH2D6 | TNF reporter robust z-score: -0.74; call: inactive
SH2D6 | TNF reporter robust z-score: 0.32; call: inactive
SH2D6 | TNF reporter robust z-score: 0.03; call: inactive
SH2D6 | TNF reporter robust z-score: -0.46; call: inactive

Reagents listed so far marked active (3):
CNTNAP3 | TNF reporter robust z-score: -1.74; call: active
CNTNAP3 | TNF reporter robust z-score: -1.8; call: active
CNTNAP3 | TNF reporter robust z-score: -2.09; call: active

More entries:
CFAP53 | TNF reporter robust z-score: 1.67; call: inactive
CFAP53 | TNF reporter robust z-score: -0.16; call: inactive
CFAP53 | TNF reporter robust z-score: -0.55; call: inactive
CFAP53 | TNF reporter robust z-score: -0.13; call: inactive
GUF1 | TNF reporter robust z-score: 1.25; call: inactive
GUF1 | TNF reporter robust z-score: 1.2; call: inactive
GUF1 | TNF reporter robust z-score: 1.21; call: inactive
GUF1 | TNF reporter robust z-score: -0.32; call: inactive
POP5 | TNF reporter robust z-score: -0.22; call: inactive
POP5 | TNF reporter robust z-score: -0.38; call: inactive
POP5 | TNF reporter robust z-score: -0.82; call: inactive
POP5 | TNF reporter robust z-score: -0.8; call: inactive
CDH12 | TNF reporter robust z-score: 0.41; call: inactive
CDH12 | TNF reporter robust z-score: 0.54; call: inactive
CDH12 | TNF reporter robust z-score: 0.69; call: inactive
CDH12 | TNF reporter robust z-score: 0.65; call: inactive
ADGRF3 | TNF reporter robust z-score: 1.24; call: inactive
ADGRF3 | TNF reporter robust z-score: 0.45; call: inactive
ADGRF3 | TNF reporter robust z-score: 0.63; call: inactive
ADGRF3 | TNF reporter robust z-score: 1.19; call: inactive
LMF2 | TNF reporter robust z-score: 0.17; call: inactive
LMF2 | TNF reporter robust z-score: -0.01; call: inactive
LMF2 | TNF reporter robust z-score: 0.77; call: inactive
LMF2 | TNF reporter robust z-score: -0.21; call: inactive
MKRN1 | TNF reporter robust z-score: -0.87; call: inactive
MKRN1 | TNF reporter robust z-score: 1.02; call: inactive
MKRN1 | TNF reporter robust z-score: 0.95; call: inactive
MKRN1 | TNF reporter robust z-score: -0.47; call: inactive
MLST8 | TNF reporter robust z-score: 0.14; call: inactive
MLST8 | TNF reporter robust z-score: 0.58; call: inactive
MLST8 | TNF reporter robust z-score: 0.27; call: inactive
MLST8 | TNF reporter robust z-score: 1.31; call: inactive
